Screening data, single-dose tests

Amino acid sequences for entries named in this document (tags omitted). Residues count along the entry.
UniProt I6X8D2, whole entry: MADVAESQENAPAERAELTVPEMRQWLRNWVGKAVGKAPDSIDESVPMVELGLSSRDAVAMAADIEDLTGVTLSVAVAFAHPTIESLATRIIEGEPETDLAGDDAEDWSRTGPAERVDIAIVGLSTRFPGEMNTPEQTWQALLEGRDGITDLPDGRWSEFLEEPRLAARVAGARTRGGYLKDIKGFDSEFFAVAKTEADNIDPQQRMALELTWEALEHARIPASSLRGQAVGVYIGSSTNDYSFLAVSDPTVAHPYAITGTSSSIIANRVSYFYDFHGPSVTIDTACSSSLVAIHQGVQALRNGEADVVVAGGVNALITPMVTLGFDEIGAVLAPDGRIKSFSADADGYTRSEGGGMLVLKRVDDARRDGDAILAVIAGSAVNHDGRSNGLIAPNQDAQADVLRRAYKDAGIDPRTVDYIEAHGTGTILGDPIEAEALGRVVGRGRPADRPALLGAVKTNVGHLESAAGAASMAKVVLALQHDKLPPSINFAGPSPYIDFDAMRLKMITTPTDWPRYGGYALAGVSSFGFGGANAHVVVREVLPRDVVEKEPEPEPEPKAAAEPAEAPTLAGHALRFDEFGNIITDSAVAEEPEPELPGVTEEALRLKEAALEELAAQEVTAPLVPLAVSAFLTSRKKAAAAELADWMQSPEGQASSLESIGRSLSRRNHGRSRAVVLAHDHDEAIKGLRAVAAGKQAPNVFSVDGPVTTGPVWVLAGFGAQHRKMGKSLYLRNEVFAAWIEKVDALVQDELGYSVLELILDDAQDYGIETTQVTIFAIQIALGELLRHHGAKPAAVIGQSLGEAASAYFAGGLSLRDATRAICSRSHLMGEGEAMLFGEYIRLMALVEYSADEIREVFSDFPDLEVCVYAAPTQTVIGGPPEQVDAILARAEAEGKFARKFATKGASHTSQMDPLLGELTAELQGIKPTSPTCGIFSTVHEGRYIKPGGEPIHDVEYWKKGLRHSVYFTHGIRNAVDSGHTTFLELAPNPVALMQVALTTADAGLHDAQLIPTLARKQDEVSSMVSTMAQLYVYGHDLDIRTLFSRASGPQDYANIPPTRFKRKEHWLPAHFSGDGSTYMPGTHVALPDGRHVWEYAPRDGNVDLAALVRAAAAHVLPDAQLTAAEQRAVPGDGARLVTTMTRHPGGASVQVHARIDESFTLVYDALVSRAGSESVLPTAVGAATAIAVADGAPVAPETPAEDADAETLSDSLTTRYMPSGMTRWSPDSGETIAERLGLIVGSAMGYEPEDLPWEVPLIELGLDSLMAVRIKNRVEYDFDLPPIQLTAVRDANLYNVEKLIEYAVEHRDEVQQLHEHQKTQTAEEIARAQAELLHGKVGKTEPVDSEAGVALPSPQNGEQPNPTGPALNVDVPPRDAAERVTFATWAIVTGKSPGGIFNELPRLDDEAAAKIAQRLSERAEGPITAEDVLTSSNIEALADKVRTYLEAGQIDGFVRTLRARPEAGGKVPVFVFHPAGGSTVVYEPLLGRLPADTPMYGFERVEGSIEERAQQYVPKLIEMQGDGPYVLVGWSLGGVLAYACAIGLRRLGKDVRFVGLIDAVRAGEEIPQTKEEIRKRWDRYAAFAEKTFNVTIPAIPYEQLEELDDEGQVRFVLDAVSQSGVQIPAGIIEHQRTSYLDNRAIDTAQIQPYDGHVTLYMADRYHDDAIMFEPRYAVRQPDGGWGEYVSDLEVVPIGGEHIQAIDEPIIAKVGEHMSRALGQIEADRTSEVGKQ
UniProt Q8IDJ8, 1-583: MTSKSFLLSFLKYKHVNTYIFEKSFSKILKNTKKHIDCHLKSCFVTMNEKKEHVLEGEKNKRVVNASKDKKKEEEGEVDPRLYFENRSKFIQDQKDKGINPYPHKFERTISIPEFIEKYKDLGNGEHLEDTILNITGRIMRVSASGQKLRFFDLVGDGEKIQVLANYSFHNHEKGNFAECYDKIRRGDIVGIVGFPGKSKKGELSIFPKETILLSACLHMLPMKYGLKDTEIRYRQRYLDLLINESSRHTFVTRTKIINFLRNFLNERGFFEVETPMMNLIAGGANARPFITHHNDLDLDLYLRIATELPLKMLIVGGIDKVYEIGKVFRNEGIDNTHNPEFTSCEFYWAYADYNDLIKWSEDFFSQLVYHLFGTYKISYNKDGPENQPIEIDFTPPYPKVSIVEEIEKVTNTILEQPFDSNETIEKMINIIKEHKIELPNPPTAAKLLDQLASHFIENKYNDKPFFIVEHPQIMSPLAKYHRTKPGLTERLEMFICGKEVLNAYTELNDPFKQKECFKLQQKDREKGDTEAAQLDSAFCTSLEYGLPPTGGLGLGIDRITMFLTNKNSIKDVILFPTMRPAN
UniProt A4I591, 1-473: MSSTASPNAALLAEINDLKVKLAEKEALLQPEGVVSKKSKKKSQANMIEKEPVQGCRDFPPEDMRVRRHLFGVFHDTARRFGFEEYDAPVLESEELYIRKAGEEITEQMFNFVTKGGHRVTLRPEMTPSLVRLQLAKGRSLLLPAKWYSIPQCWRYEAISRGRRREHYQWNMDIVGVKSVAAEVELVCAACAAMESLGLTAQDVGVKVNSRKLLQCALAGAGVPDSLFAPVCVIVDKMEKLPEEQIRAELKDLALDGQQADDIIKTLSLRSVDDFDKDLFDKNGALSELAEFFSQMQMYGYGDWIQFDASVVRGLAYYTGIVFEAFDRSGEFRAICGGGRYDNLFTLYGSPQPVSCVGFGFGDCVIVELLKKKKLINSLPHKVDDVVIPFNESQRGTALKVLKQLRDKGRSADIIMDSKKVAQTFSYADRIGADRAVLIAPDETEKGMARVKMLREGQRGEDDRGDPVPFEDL
UniProt Q4DA54, 1-478: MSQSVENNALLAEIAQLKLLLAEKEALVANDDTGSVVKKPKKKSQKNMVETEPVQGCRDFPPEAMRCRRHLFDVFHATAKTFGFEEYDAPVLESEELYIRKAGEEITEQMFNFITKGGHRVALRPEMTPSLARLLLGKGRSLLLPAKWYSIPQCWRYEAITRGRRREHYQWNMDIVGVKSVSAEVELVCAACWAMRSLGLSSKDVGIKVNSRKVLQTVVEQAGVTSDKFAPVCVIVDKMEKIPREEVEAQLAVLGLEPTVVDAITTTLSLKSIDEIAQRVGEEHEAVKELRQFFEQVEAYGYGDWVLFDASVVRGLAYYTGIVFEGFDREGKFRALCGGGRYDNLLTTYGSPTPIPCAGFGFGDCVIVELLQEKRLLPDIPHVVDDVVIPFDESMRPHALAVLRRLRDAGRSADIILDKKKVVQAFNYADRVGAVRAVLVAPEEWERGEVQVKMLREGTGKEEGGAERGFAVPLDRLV

From ChEMBL document CHEMBL3988442, “University of Dundee, Small-Polar-MMV Screening Library” (2021).

A: 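Polyketide synthase Pks13, Mycobacterium tuberculosis (UniProt I6X8D2). Enzyme assay of the thioesterase domain of polyketide synthase 13; the read-out is not stated. Tested at 30 µM. The record gives no direction; the compounds picked for IC50 retests had high values, so higher reads as stronger inhibition. Of about 67,000 compounds tested this way, about 300 (0.46%) reached 50% or more in at least one test.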
B: 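Lysine-tRNA ligase, Plasmodium falciparum 3D7 (UniProt Q8IDJ8). Enzyme assay of the cytosolic lysyl-tRNA synthetase in 384-well plates, read by luminescence. Compounds at 30 µM. Higher reads as stronger inhibition, judged from the few compounds that gave an IC50. Of about 69,000 compounds tested this way, about 49 (0.071%) reached 50% or more in at least one test.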
C: 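Enzyme assay of histidyl-tRNA synthetase; the read-out is not stated. Target: Histidine-tRNA ligase, Leishmania infantum (UniProt A4I591). Tested at 30 µM. Higher reads as stronger inhibition (inferred: compounds with an IC50 in retests scored well above the rest). The assay is labelled LdHisRS but filed under L. infantum. Of about 69,000 compounds tested this way, about 410 (0.6%) reached 50% or more in at least one test.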
D: 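Enzyme assay of histidyl-tRNA synthetase; the read-out is not stated. Target: Histidine-tRNA ligase, Trypanosoma cruzi CL Brener (UniProt Q4DA54). Compounds at 30 µM. The record gives no direction; compounds that gave an IC50 in retests scored well above the rest, so higher reads as stronger inhibition. About 69,000 compounds were tested under these conditions; 0.045% (about 31) showed 50% or more at least once.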

Values are the deposited “Percent Effect”, in %.
The controls that fix the scale are not given in the record; negative values are as filed.
This is an unselected part of the compounds tested.

{"compound": "CCc1nc(Cn2cncc(Br)c2=O)no1", "A": -17.76, "B": 1.903, "C": 11.43, "D": 3.061}
{"compound": "Cc1nc(N)cc(C2CN(C(=O)c3ccn(C)n3)CCO2)n1", "stereo": "stereo unspecified", "A": -25.52, "B": 1.906, "C": 22.22, "D": 2.703}
{"compound": "O=S(=O)(NCc1cc2n(n1)CCNC2)c1ccc(OC(F)(F)F)cc1", "A": 0.4226, "B": 1.962, "C": 2.381, "D": 3.529}
{"compound": "Cc1nc(C(=O)N(C)CC2CC2)nn1-c1ccccc1C(C)C", "A": -15.76, "B": -5.985, "C": 10.71, "D": 2.632}
{"compound": "Cc1nc(CC(=O)N2CCC(c3nn(C)c4ncccc34)CC2)cs1", "A": -1.367, "B": -0.07756, "C": 7.292, "D": 3.191}
{"compound": "CSC(C)CCN1CCCn2nc(CNC(=O)C3CCC3)cc2C1", "stereo": "stereo unspecified", "A": -14.88, "B": -3.101, "C": 15.2, "D": -3.518}
{"compound": "COc1ccc(NC(=O)N(C)Cc2ccc(Br)o2)cn1", "A": -15.81, "B": -0.05656, "C": 24, "D": 4.891}
{"compound": "Cc1ccsc1CNc1ccccc1C(=O)N1CCNC(=O)C1", "A": 8.267, "B": 2.38, "C": 19.74, "D": -0.4926}
{"compound": "c1nnc(Nc2cncc(C3CCCN3)n2)s1", "stereo": "stereo unspecified", "A": 14.95, "B": 1.65, "C": 13.04, "D": 6.061}
{"compound": "CC(C)CN1CCC(NC(=O)c2ccc(F)cc2I)CC1", "A": -28.75, "B": 3.178, "C": 18.27, "D": 0}
{"compound": "CN(CC1COc2ccccc2O1)C(=O)C1=NN(C)C(=O)CC1", "stereo": "stereo unspecified", "A": -6.803, "B": -0.7434, "C": 10.99, "D": -0.6024}
{"compound": "O=C(c1ccc(N2CCCC2)nn1)N1CCCC(n2cccn2)C1", "stereo": "stereo unspecified", "A": -4.923, "B": 6.607, "C": 10.61, "D": 1.515}
{"compound": "O=C([C@H]1CN(Cc2ccoc2)C[C@H]2OCC[C@@H]12)N1CCCCO1", "A": -22.42, "B": 0.7664, "C": 22.22, "D": 4.478}
{"compound": "COCC1CC2(CCN(Cc3ccncc3)CC2)CN1C(C)C", "stereo": "stereo unspecified", "A": -18.24, "B": -3.254, "C": 10.91, "D": 2.479}
{"compound": "Oc1nc(N2CCOCC2)nc2nccc(-c3ccccn3)c12", "A": -9.121, "B": 5.996, "C": 15, "D": -2.484}
{"compound": "Cc1ccc(CCCC(=O)N2CC(=O)Nc3cccnc32)s1", "A": -1.068, "B": 3.082, "C": 13.33, "D": 11.52}
{"compound": "Cn1nc(C(=O)N2CC(Oc3nc4c(Cl)cccc4s3)C2)ccc1=O", "A": -7.228, "B": 2.389, "C": 10.75, "D": 4.663}
{"compound": "CCn1c(CC2CCNCC2)nn(Cc2ccc(C(=O)NC)o2)c1=O", "A": -10.46, "B": 6.267, "C": 16.33, "D": 8.205}
{"compound": "COc1ccc(CC(=O)N2CCCCC2Cn2cccn2)cc1", "stereo": "stereo unspecified", "A": -18.72, "B": 0.149, "C": 6.195, "D": 0.8746}
{"compound": "CN(C)S(=O)(=O)NCC(O)c1cc2ccccc2s1", "stereo": "stereo unspecified", "A": -4.328, "B": 12.84, "C": 17.65, "D": 8.995}
{"compound": "N#Cc1ccc(OCCCN2CCOC(Cn3cncn3)C2)cc1", "stereo": "stereo unspecified", "A": -19.38, "B": -1.446, "C": 0, "D": 0.8596}
{"compound": "O=C(NC1CCCCC1)N1CCCC1c1nnc2n1CCNC2", "stereo": "stereo unspecified", "A": -18.35, "B": 7.563, "C": 16.55, "D": 0.5917}
{"compound": "CN(C)C(=O)COCC1CN(C2CCC2)Cc2ncn(C)c21", "stereo": "stereo unspecified", "A": -50.66, "B": 0.1852, "C": 5.556, "D": 2.804}
{"compound": "CNC(=O)[C@@H](CC(C)C)N1CCC[C@H]1C(=O)N(C)Cc1cccnc1", "A": -32.35, "B": 4.342, "C": 27.78, "D": 9.901}
{"compound": "O=C1COC2(CCN(C(=O)c3cnccn3)CC2)CN1CC1CC1", "A": 0.2305, "B": -0.1286, "C": 0, "D": 6.135}
{"compound": "O=S(=O)(C1CC1)N1CCc2ncnc(N3CCCC3)c2CC1", "A": -13.8, "B": 2.714, "C": 9.901, "D": 5.528}

For reference, 3 entries once more:

{"compound": "O=S(=O)(C1CC1)N1CCc2ncnc(N3CCCC3)c2CC1", "A": -13.8, "B": 2.714, "C": 9.901, "D": 5.528}
{"compound": "CCc1nc(Cn2cncc(Br)c2=O)no1", "A": -17.76, "B": 1.903, "C": 11.43, "D": 3.061}
{"compound": "CC(C)CN1CCC(NC(=O)c2ccc(F)cc2I)CC1", "A": -28.75, "B": 3.178, "C": 18.27, "D": 0}